Assay results taken from patent US10696688B2, “Fused pyrimidines as isoform selective phosphoinositide-3-kinase-alpha inhibitors and process for preparation thereof” (Council of Scientific and Industrial Research, priority 2015, dated 2020).
Some of these results come from one statement about several compounds together.

By UniProt entry, the sequences of proteins in these tests, tags left out.
UniProt P42336, whole entry: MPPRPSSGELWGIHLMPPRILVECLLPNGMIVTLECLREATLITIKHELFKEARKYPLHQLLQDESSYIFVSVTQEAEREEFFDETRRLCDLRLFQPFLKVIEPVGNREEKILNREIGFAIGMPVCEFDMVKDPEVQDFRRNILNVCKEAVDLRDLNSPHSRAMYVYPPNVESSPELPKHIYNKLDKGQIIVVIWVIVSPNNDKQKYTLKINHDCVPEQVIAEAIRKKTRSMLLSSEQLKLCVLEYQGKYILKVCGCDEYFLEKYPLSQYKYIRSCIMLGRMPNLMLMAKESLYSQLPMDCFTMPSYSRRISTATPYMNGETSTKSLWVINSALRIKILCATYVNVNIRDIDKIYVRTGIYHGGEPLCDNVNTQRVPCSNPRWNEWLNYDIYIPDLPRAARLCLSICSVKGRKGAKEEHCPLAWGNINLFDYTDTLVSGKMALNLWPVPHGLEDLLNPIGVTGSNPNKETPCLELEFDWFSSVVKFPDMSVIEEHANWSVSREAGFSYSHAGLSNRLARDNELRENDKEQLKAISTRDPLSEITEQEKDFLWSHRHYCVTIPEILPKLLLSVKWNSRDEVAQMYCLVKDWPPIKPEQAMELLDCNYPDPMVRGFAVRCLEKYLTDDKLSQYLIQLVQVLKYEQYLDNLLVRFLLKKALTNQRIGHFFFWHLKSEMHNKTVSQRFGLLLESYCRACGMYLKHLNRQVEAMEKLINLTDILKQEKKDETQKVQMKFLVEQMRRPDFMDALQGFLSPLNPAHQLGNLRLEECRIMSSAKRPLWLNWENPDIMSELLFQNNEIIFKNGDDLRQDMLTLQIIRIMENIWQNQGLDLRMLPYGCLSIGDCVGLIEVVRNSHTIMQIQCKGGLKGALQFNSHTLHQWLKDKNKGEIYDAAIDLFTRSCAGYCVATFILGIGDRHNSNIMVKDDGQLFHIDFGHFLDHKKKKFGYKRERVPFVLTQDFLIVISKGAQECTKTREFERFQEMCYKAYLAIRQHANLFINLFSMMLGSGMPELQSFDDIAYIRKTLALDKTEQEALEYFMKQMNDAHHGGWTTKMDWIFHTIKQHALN

Target: PI3K-alpha (Homo sapiens, UniProt P42336)
Assay: PI3K-α assay (ADP-Glo)
Format: biochemical
Details: at 500 nM (0.5 μM), NI = no inhibition at tested concentration
Method: Compounds proposed in present invention were evaluated for their inhibitory activity on phosphoinositide-3-kinase-α and other isoforms (β, γ and δ). The preliminary screening was performed at 0.5 μM. The protocols used for these bioassays are as follows:
PI3K-alpha (diluted in 12.5 mM Glycine-NaOH (pH 8.5), 50 mM KCl, 2.5 mM MgCl2, 1 mM DTT, 0.05% CHAPS) is assayed in total volume of 20 μl containing 12.5 mM glycine-NaOH (pH 8.5), 50 mM KCl, 2.5 mM MgCl2, 1 mM DTT, 0.05% CHAPS, 0.01 mM ATP and 0.05 mM diC8 PIP2. The enzyme is assayed for 80 min after which 20 μl of ADP-Glo reagent is added. After a further incubation of 40 min, 40 μl of Kinase Detection Buffer is added. The assays are incubated for 40 min and then read on PerkinElmer Envision for 1 sec/well.

CCc1ccc(NC(=O)NC2CCN(c3nc(N4CCOCC4)c4sccc4n3)CC2)cc1 [Compound 22, 1-(4-ethylphenyl)-3-(1-(4-morpholinothieno[3,2-d]pyrimidin-2-yl)piperidin-4-yl)urea]
% PI3Kα inhibition at 500 nM: > 70%
